Among the data in article PMC11918387 are binding values, retold here.

Protein sequences, listed by entry. Tags and fused reporters are not part of them. Lines headed by an entry give the natural chain unless they say otherwise; changes in a name come on top.
UniProt Q09871: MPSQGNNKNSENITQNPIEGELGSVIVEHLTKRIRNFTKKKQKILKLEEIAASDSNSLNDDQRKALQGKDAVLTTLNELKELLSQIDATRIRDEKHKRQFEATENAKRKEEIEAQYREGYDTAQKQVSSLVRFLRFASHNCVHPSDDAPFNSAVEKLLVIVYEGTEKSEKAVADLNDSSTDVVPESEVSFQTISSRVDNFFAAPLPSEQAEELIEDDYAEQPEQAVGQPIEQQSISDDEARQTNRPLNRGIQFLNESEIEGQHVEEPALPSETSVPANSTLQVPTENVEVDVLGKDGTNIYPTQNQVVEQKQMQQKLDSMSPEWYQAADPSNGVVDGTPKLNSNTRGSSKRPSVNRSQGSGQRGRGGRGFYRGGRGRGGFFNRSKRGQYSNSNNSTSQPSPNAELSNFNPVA

These are yes or no findings as the source states them, for the method shown. Binding seen in cells or lysates may run through a third protein. Here binding means that the protein was enriched with, or labelled near, the bait; the list need not be complete.

This assay concerns the target Cpn1-FLAG (fission yeast Caprin protein Cpn1, product of SPAC12G12.07c) (S. pombe) (UniProt Q09871). The assay is described as follows: affinity purification with mass spectrometry; anti-FLAG immunoprecipitation (Protein G Dynabeads) of Cpn1-FLAG from S. pombe lysate; 50 mM HEPES-NaOH pH 7.5, 150 mM KCl, 0.1% NP-40; 90 min at 4°C; Benzonase treatment on beads; LC-MS/MS; untagged control strains; two independent experiments.

B1: Ubp3 (protein, UniProt O94269 1-512)
chain: MRDLTSATDSASLESDSSRNQFIINSLLPWYSCSEHEFPHRKARKRRSPKNLDWSVSVQMPLVTSKTKESEKSPKSWSAIAKKHVQGDSPVKKSHSVPVPSDRSEKKSFNSSLGELIETYSPSLDAPRPIQPRGFINTGNICFMNSILQALMYCVPFYNLLKQINRMVPYNFERTTPLIESLTMLSRDFREYSEKFDLQGDSILPEVVYSATKGNPRFEMLQTGEQEDAEEFLNLFLDELHEEFVRERRHYLLKNDERNPKSDIKISNGIKSGLDSFDDQSSVEASGWTEVGKNKKPVIARSATVERSPISQIFGGQLRSTLRVPSARDSVLLEPFQPLQLDIQAEDIHSVIDALEHMTAPEILPEWHSSKGNVTATKQMYIESLPPVLILHLKRFFYEASGGTQKNYKPIAYPARLSIPQNVFSPSVRGSIHPEYDLNAVVYHHGTSASGGHYTVDVQQLDKSGWFRIDDTHIHRVPIHDVENSELSADPSLSKLGHGDRVAYLLFYTRRS
As to B1, the binding result is “binds”.

B2: Nxt3 (protein, UniProt O94260 1-434)
chain: MTAENATLLEPVLGKDEIGWMFVQEYYTYLNKEPNRLHCFYTKKSTLIHGDEGESISLCHGQQEIHNKILDLDFQNCKVLISNVDSLASSNGGIVIQVLGEMSNKGKLSRKFAQTFFLAEQPNGYFVLNDIFRFLREDVEEEEESPDAVEKEKKDVASEPYVNGVQSQEHLPSAKEEGHYQDPAATENNFATAALISNETDSLNQATLAVPEEPVIQVTEASVPSFVSQQENQLQDEALTSNSKNADAIGASDANVATAPKSWADLIARNHPDVKSQASVSSTASTTGQTVKGVNADQTQQPTAPYTQSNELLETSVFVKNIPPETSDVSLKSAMSIFGPVKAIEFARRKGTAYVDFVNHECVQLALNKKTLQINNATLNIEERRRLFSGKFNKSGDKKSNDNYNGMKRNFRKGNRGAFDGRSKEVTTSKKQNN
With B2, the binding result is listed as “binds”.
